Measurements taken from patent EP3069725A1, “GLORIOSA SUPERBA L. EXTRACTS, COMPOSITIONS AND USE THEREOF” (priority 2015, dated 2016).
Converted amounts (≈) assume the structure as drawn.

Legend:
[1] = tested on: murine pancreatic cancer cells PANC02; test: cells; conditions: Mus musculus, Panc02, 24 h
cancer cells = conditions: literature comparison with colchicine; cited from earlier work

With `COc1cc2c(c(OC)c1OC)-c1ccc(OC)c(=O)cc1[C@@H](NC(C)=O)CC2` [COL, colchicine] the IC50 [1] was 0.098 ± 0.004 µg/mL (≈ 0.245 µM).
For `COc1c(O)cc2c(c1OC)-c1ccc(OC)c(=O)cc1[C@@H](NC(C)=O)CC2` [3-O-demethylcolchicine], the in vivo potency (cancer cells) is given as 3.6 µmol/kg.
